From article doi:10.1101/2021.08.30.458243

Amino acid sequences for entries named in this document (tags omitted). A change or cut given only in a name is not applied to a line headed by its entry.
UniProt Q69ZS8: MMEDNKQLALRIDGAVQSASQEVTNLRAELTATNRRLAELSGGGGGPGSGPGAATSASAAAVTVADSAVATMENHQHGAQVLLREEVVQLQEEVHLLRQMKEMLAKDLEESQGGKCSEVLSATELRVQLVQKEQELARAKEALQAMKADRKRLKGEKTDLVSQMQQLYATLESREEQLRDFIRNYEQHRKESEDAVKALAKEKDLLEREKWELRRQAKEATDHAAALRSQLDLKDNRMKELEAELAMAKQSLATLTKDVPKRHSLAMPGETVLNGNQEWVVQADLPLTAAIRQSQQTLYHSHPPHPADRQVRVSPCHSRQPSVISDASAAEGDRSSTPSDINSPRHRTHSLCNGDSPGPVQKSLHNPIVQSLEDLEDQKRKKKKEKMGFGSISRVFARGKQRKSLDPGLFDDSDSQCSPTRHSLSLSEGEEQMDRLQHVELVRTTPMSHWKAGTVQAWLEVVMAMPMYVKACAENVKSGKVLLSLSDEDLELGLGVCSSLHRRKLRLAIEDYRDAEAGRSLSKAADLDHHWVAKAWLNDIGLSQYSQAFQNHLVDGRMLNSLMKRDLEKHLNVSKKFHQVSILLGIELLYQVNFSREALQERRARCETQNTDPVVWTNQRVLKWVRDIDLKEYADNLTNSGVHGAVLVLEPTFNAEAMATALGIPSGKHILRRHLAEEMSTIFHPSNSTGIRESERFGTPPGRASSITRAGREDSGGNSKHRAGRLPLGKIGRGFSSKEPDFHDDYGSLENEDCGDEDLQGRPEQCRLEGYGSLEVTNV
UniProt O08788: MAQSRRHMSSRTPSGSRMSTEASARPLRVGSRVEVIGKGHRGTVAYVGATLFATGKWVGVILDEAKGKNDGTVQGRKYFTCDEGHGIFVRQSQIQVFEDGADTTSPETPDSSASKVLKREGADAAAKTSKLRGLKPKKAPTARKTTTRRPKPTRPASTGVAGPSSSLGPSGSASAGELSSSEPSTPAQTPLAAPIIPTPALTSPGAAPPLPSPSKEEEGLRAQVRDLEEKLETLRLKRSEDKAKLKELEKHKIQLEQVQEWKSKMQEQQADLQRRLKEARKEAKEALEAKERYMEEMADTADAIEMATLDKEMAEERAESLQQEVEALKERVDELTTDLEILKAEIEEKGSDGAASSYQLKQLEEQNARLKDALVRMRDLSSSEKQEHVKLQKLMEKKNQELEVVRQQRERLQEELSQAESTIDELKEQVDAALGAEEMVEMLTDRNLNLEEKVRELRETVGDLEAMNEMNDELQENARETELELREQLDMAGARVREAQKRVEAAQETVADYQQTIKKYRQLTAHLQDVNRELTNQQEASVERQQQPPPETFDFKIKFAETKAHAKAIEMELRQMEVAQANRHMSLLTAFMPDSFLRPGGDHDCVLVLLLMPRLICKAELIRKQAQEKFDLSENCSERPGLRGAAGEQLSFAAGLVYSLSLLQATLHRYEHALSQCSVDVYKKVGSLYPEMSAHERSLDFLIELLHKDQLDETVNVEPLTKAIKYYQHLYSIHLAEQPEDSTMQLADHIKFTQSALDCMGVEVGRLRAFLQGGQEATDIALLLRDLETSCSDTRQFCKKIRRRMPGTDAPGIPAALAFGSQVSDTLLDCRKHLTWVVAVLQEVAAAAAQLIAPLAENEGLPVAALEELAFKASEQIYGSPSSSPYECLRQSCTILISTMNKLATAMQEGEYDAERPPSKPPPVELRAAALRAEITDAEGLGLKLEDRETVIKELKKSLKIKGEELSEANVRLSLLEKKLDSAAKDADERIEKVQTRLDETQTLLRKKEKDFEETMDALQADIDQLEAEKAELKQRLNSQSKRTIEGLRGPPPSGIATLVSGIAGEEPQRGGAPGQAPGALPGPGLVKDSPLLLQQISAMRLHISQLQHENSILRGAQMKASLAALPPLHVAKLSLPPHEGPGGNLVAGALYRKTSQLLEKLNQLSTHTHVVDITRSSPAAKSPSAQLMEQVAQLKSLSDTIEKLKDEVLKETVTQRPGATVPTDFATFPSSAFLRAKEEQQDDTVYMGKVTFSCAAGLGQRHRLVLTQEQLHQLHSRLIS
UniProt P22892: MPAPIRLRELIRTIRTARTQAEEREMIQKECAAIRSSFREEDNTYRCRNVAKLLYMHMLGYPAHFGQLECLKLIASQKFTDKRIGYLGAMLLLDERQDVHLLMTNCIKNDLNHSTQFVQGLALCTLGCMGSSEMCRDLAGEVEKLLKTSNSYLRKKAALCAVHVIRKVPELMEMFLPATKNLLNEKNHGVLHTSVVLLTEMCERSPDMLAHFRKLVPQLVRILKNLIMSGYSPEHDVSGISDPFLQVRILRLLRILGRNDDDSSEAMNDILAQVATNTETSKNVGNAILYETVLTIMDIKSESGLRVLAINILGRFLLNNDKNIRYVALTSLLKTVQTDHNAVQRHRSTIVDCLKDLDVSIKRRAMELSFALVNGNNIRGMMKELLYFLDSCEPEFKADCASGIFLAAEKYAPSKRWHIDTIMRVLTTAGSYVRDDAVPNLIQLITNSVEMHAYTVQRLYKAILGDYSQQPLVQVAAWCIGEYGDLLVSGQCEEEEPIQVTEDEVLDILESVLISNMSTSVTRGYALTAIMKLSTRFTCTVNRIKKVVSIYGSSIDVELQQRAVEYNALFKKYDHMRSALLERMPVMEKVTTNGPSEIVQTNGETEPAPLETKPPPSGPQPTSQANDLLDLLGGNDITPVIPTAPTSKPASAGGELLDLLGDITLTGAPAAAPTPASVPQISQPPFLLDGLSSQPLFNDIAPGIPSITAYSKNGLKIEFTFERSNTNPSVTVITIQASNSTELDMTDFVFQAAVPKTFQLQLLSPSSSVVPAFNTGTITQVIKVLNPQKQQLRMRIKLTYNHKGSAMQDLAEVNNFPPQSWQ

Tests used:
[1] = target: T1, GST fused to full length EHD1 (UniProt Q9H4M9); experiment: pull-down
T1 sequence: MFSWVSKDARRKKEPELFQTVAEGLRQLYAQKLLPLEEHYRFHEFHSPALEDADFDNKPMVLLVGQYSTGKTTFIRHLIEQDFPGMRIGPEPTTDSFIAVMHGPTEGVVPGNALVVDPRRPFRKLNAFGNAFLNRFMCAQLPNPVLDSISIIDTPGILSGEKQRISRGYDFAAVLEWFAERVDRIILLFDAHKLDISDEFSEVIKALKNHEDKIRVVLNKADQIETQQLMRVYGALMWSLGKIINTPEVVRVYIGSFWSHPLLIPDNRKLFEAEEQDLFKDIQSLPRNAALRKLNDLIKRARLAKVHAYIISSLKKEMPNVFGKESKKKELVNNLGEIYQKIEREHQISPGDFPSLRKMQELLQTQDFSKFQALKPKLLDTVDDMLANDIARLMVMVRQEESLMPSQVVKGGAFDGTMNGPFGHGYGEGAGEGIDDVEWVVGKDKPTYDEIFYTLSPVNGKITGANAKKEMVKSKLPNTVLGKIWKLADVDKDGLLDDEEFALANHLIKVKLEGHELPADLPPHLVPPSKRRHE

[2] = target: T2, GST fused to full length EHD3 (UniProt Q9NZN3); experiment: pull-down
T2 sequence: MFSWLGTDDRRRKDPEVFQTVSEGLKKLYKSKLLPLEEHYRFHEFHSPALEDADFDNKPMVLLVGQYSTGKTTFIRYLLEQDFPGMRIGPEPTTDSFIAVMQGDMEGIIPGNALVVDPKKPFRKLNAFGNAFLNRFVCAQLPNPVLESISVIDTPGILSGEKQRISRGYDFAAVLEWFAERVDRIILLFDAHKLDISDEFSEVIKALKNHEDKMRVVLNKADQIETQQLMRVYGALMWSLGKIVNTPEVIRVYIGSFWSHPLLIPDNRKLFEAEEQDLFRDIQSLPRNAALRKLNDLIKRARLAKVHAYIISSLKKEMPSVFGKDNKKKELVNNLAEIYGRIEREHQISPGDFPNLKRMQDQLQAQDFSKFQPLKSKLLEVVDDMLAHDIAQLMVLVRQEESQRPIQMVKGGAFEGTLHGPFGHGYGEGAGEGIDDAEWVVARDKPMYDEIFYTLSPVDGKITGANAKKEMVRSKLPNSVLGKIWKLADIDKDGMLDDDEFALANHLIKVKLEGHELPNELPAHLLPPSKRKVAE

[3] = target: endogenous kazrin (MEF) (mouse (endogenous in MEF)) (UniProt Q69ZS8); experiment: co-IP

Row | Substance | binding [1] | binding [2] | binding [3]
1 | 6xHis-kazrin C (human) | binds | binds | 
2 | dynactin component p150-glued, MEF (from UniProt O08788 1-1281) |  |  | binds
3 | γ-adaptin, a component of the clathrin adaptor AP-1 (Adaptor Protein 1), MEF (from UniProt P22892 1-822) |  |  | binds

These are yes or no findings as the source states them, for the method shown. A result given as binding can be weak or reduced; the word gives no strength. For some of these results: Where a sequence is shown, tags or fusion partners need not be part of it. For some of these results: In cells and extracts the contact can be indirect.
